Results are given in words; binding and its absence hold for the method and conditions named. In cells and extracts the contact can be indirect. A result given as binding can be weak or reduced; the word gives no strength.
Experiments:
[1] = target: RASSF1 (human (in human CRC cells)) (UniProt Q9NS23); test: co-IP; about 800 ug protein incubated with indicated antibodies at 4 °C overnight, protein A or G beads for a further 2 h at 4 °C, beads washed three times, bound proteins detected by western blot; cells and precipitating antibody not given
[2] = target: Cullin-1 (human (in human CRC cells)) (UniProt Q13616); test: as above

Chains of the proteins cited; added tags and fusions are not shown. Lines headed by an entry give the natural chain unless they say otherwise; changes in a name come on top.
UniProt Q9NS23: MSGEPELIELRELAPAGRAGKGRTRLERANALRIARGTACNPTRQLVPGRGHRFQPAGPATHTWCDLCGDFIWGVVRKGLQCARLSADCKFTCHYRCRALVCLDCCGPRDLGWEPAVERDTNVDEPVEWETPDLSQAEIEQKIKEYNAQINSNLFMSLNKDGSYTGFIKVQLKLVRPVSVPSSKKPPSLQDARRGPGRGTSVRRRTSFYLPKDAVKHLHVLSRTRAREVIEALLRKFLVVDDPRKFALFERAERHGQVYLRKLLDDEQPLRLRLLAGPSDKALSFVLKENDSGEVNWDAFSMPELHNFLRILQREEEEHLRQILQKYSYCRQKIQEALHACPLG
UniProt Q13616: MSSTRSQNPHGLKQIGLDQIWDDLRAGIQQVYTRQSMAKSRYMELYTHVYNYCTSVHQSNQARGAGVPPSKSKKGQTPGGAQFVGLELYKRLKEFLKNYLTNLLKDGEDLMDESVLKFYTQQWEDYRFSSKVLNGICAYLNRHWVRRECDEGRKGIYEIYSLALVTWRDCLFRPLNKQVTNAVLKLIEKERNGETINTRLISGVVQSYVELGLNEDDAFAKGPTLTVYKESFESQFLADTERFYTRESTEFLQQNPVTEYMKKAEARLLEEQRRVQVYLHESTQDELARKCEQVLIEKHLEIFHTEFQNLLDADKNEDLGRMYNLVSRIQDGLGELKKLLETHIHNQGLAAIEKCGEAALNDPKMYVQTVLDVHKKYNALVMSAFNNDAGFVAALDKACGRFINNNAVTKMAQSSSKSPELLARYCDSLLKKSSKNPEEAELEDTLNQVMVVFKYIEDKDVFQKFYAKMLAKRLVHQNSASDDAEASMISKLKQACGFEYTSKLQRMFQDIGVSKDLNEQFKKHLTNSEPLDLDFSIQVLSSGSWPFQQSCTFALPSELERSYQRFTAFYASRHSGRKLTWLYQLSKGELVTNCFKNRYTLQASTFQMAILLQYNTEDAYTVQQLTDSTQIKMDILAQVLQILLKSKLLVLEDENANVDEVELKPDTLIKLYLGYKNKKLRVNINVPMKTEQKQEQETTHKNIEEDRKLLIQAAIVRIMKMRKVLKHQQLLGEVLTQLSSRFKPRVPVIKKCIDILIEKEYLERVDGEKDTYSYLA
UniProt P63208: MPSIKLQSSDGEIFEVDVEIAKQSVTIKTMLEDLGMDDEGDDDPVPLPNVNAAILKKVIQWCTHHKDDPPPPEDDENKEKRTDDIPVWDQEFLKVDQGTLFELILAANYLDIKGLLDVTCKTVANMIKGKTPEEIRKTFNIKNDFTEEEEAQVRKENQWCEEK

Substance	binding [1]	binding [2]
SKP1 (S-Phase Kinase Associated Protein 1) (from UniProt P63208 1-163)	binds	–
RASSF1 (from UniProt Q9NS23-2)	–	binds

— paper PMC7713163
